Values from PubChem BioAssay AID1259308 (NCATS, 2017)
Test: 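Knock-downs that increase output of a recombinant reporter protein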 (primary screen). System: human HEK293 embryonic kidney cells stably expressing firefly luciferase (HEK-CMV-Luc2-Hygro). Reagent: single siRNA against human genes, 0.8 pmol siRNA per well. Time to read-out: 72 h. Measured: 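Luciferase light (ONE-Glo) measured on one replicate plate set and viability (CellTiter-Glo) on the other, scaled to a negative control siRNA, with robust z-scores and luciferase per cell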. Direction: total luciferase, z-score and total luciferase, % of control: higher = more reporter protein produced. Active means: 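An siRNA counts as active if its total luciferase robust z-score exceeds 3; genes with two or more such siRNAs out of three were retested with fresh siRNAs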. Calls: active = raised luciferase; inactive = no rise.
Here is one part, drawn at random, of about 59,000 reagents tested. Of all reagents, about 1,510 (2.6%) got an active call. 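Calls use total luciferase alone and ignore viability, so some active siRNAs may act by altering cell number.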 Further read-outs or replicates are left out here.

{"target": "CXCR3", "PubChem SID": "SID160773143", "total luciferase, z-score": -0.129, "total luciferase, % of control": 79.3, "outcome": "inactive"}
{"target": "CXCR3", "PubChem SID": "SID160773150", "total luciferase, z-score": -0.524, "total luciferase, % of control": 71.5, "outcome": "inactive"}
{"target": "CXCR3", "PubChem SID": "SID160773159", "total luciferase, z-score": -1.37, "total luciferase, % of control": 54.7, "outcome": "inactive"}
{"target": "CDKL3", "PubChem SID": "SID160740446", "total luciferase, z-score": -0.677, "total luciferase, % of control": 68.4, "outcome": "inactive"}
{"target": "CDKL3", "PubChem SID": "SID160740447", "total luciferase, z-score": 0.203, "total luciferase, % of control": 85.9, "outcome": "inactive"}
{"target": "CDKL3", "PubChem SID": "SID160740448", "total luciferase, z-score": 0.622, "total luciferase, % of control": 94.2, "outcome": "inactive"}
{"target": "ARPC1B", "PubChem SID": "SID160725296", "total luciferase, z-score": 0.225, "total luciferase, % of control": 86.4, "outcome": "inactive"}
{"target": "ARPC1B", "PubChem SID": "SID160725305", "total luciferase, z-score": 1.89, "total luciferase, % of control": 120, "outcome": "inactive"}
{"target": "ARPC1B", "PubChem SID": "SID160725312", "total luciferase, z-score": -1.11, "total luciferase, % of control": 59.8, "outcome": "inactive"}
{"target": "C15orf61", "PubChem SID": "SID160758291", "total luciferase, z-score": 1.15, "total luciferase, % of control": 105, "outcome": "inactive"}
{"target": "C15orf61", "PubChem SID": "SID160758293", "total luciferase, z-score": -0.362, "total luciferase, % of control": 74.7, "outcome": "inactive"}
{"target": "C15orf61", "PubChem SID": "SID160758294", "total luciferase, z-score": -1.12, "total luciferase, % of control": 59.6, "outcome": "inactive"}
{"target": "PRKAA2", "PubChem SID": "SID160714889", "total luciferase, z-score": -0.858, "total luciferase, % of control": 64.8, "outcome": "inactive"}
{"target": "PRKAA2", "PubChem SID": "SID160714890", "total luciferase, z-score": 0.28, "total luciferase, % of control": 87.5, "outcome": "inactive"}
{"target": "PRKAA2", "PubChem SID": "SID160714891", "total luciferase, z-score": 0.533, "total luciferase, % of control": 92.5, "outcome": "inactive"}
{"target": "DPY19L3", "PubChem SID": "SID160732551", "total luciferase, z-score": 0.932, "total luciferase, % of control": 100, "outcome": "inactive"}
{"target": "DPY19L3", "PubChem SID": "SID160732552", "total luciferase, z-score": 0.0412, "total luciferase, % of control": 82.7, "outcome": "inactive"}
{"target": "DPY19L3", "PubChem SID": "SID160758620", "total luciferase, z-score": 2.13, "total luciferase, % of control": 124, "outcome": "inactive"}
{"target": "DPY19L3", "PubChem SID": "SID160758621", "total luciferase, z-score": 0.24, "total luciferase, % of control": 86.7, "outcome": "inactive"}
{"target": "DPY19L3", "PubChem SID": "SID160758622", "total luciferase, z-score": 0.747, "total luciferase, % of control": 96.7, "outcome": "inactive"}
{"target": "DPY19L3", "PubChem SID": "SID160758623", "total luciferase, z-score": 0.678, "total luciferase, % of control": 95.4, "outcome": "inactive"}
{"target": "WASHC3", "PubChem SID": "SID160739866", "total luciferase, z-score": -0.00662, "total luciferase, % of control": 81.8, "outcome": "inactive"}
{"target": "WASHC3", "PubChem SID": "SID160739867", "total luciferase, z-score": -0.281, "total luciferase, % of control": 76.3, "outcome": "inactive"}
{"target": "WASHC3", "PubChem SID": "SID160739868", "total luciferase, z-score": 4.49, "total luciferase, % of control": 171, "outcome": "active"}
{"target": "GVINP1", "PubChem SID": "SID160765661", "total luciferase, z-score": 1.41, "total luciferase, % of control": 110, "outcome": "inactive"}
{"target": "GVINP1", "PubChem SID": "SID160765662", "total luciferase, z-score": 1.65, "total luciferase, % of control": 115, "outcome": "inactive"}
{"target": "GVINP1", "PubChem SID": "SID160765663", "total luciferase, z-score": 0.176, "total luciferase, % of control": 85.4, "outcome": "inactive"}
{"target": "PAG1", "PubChem SID": "SID160744454", "total luciferase, z-score": -0.265, "total luciferase, % of control": 76.6, "outcome": "inactive"}
{"target": "PAG1", "PubChem SID": "SID160744455", "total luciferase, z-score": 1.87, "total luciferase, % of control": 119, "outcome": "inactive"}
{"target": "PAG1", "PubChem SID": "SID160744458", "total luciferase, z-score": 0.908, "total luciferase, % of control": 100, "outcome": "inactive"}
{"target": "DDI2", "PubChem SID": "SID160716240", "total luciferase, z-score": 0.591, "total luciferase, % of control": 93.6, "outcome": "inactive"}
{"target": "DDI2", "PubChem SID": "SID160716242", "total luciferase, z-score": -0.0143, "total luciferase, % of control": 81.6, "outcome": "inactive"}
{"target": "DDI2", "PubChem SID": "SID160716243", "total luciferase, z-score": -0.916, "total luciferase, % of control": 63.7, "outcome": "inactive"}
{"target": "DDI2", "PubChem SID": "SID160752101", "total luciferase, z-score": 1.85, "total luciferase, % of control": 119, "outcome": "inactive"}
{"target": "DDI2", "PubChem SID": "SID160752102", "total luciferase, z-score": 2.33, "total luciferase, % of control": 128, "outcome": "inactive"}
{"target": "DDI2", "PubChem SID": "SID160752103", "total luciferase, z-score": -1.7, "total luciferase, % of control": 48.2, "outcome": "inactive"}

Reformatted: results already given
PRKAA2 [SID160714889] → total luciferase, z-score = -0.858; total luciferase, % of control = 64.8; outcome = inactive
PRKAA2 [SID160714890] → total luciferase, z-score = 0.28; total luciferase, % of control = 87.5; outcome = inactive
